Measured values: the supplement of paper PMC10849652
This is one part of the list.

Protein sequences, listed by entry. Tags and fused reporters are not part of them. Lines headed by an entry give the natural chain unless they say otherwise; changes in a name come on top.
UniProt P20073: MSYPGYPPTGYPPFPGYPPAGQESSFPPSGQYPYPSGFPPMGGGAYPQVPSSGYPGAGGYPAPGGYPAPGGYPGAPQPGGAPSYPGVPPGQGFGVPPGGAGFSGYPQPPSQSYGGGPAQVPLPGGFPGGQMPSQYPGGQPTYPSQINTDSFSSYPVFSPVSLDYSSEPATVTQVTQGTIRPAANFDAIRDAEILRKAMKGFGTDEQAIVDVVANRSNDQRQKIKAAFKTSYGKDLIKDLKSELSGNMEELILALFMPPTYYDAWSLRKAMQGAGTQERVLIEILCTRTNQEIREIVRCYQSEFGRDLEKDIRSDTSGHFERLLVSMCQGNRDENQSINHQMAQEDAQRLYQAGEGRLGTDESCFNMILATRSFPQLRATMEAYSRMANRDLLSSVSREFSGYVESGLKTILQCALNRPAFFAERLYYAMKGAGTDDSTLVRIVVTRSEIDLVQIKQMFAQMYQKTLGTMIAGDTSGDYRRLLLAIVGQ
UniProt Q8IWZ3: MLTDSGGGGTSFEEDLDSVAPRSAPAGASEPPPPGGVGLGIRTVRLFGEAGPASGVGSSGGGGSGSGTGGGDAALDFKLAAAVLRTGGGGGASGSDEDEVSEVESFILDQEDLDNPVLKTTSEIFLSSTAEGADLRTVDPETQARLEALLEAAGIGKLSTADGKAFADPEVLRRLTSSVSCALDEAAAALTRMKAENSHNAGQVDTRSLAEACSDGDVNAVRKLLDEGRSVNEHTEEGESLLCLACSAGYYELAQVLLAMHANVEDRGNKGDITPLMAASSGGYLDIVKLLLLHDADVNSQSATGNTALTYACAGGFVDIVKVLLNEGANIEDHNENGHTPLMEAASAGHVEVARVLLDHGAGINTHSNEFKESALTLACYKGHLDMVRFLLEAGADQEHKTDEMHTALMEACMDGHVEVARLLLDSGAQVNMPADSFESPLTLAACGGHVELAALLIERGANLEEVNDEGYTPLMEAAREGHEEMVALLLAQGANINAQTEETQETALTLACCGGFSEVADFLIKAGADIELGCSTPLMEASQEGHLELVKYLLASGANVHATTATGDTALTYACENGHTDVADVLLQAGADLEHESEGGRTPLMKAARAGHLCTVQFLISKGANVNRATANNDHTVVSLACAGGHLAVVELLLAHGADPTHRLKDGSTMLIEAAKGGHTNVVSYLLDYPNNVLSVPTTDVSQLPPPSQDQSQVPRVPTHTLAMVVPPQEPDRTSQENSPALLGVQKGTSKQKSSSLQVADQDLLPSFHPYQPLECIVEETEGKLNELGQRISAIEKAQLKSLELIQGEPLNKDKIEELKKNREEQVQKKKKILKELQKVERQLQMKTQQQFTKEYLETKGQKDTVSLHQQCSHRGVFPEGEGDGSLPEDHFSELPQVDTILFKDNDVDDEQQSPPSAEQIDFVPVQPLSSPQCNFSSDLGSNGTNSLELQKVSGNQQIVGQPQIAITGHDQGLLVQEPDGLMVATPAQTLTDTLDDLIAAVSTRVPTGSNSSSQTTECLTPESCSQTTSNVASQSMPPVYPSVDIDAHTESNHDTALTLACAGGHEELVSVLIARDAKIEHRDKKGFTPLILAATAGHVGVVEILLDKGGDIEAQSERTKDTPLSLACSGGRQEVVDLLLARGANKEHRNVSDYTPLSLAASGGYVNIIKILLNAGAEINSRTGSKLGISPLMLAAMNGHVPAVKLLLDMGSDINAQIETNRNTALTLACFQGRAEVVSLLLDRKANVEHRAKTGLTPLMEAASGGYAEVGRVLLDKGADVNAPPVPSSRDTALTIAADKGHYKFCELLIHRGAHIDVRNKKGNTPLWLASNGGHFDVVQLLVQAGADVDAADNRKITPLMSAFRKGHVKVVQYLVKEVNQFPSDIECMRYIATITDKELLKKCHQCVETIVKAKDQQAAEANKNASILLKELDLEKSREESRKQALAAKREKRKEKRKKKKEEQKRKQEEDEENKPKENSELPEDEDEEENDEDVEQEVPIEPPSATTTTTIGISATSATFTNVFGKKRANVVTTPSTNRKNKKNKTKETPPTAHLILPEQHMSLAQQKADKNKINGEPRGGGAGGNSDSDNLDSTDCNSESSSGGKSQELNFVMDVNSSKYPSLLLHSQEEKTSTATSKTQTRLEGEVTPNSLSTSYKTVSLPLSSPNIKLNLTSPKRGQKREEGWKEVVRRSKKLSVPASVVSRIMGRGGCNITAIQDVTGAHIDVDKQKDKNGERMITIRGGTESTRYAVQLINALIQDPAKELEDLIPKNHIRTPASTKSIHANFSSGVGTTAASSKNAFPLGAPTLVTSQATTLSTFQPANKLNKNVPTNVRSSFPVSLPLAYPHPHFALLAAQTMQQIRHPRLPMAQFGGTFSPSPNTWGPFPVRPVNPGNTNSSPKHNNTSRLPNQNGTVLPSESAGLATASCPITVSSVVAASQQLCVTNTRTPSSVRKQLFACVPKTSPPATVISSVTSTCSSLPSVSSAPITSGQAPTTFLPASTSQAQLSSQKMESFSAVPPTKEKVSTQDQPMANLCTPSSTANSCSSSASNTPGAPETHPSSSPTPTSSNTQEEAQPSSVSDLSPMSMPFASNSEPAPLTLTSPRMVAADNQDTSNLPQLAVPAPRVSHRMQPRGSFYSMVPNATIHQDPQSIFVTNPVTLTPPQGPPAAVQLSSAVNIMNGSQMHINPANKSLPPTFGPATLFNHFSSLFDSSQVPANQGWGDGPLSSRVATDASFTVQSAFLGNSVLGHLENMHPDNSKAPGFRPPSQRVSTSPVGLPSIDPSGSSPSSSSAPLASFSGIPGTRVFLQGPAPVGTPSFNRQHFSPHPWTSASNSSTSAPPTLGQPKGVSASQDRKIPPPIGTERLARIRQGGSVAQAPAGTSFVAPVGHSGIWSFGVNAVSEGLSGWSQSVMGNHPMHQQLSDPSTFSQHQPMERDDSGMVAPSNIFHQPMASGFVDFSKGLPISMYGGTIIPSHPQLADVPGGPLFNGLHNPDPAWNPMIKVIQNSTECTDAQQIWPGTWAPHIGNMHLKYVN
UniProt P61966: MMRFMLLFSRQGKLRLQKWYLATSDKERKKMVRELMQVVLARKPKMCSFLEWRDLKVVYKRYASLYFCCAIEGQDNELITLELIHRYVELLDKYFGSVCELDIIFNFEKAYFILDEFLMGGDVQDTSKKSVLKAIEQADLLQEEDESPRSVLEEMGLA
UniProt O00203: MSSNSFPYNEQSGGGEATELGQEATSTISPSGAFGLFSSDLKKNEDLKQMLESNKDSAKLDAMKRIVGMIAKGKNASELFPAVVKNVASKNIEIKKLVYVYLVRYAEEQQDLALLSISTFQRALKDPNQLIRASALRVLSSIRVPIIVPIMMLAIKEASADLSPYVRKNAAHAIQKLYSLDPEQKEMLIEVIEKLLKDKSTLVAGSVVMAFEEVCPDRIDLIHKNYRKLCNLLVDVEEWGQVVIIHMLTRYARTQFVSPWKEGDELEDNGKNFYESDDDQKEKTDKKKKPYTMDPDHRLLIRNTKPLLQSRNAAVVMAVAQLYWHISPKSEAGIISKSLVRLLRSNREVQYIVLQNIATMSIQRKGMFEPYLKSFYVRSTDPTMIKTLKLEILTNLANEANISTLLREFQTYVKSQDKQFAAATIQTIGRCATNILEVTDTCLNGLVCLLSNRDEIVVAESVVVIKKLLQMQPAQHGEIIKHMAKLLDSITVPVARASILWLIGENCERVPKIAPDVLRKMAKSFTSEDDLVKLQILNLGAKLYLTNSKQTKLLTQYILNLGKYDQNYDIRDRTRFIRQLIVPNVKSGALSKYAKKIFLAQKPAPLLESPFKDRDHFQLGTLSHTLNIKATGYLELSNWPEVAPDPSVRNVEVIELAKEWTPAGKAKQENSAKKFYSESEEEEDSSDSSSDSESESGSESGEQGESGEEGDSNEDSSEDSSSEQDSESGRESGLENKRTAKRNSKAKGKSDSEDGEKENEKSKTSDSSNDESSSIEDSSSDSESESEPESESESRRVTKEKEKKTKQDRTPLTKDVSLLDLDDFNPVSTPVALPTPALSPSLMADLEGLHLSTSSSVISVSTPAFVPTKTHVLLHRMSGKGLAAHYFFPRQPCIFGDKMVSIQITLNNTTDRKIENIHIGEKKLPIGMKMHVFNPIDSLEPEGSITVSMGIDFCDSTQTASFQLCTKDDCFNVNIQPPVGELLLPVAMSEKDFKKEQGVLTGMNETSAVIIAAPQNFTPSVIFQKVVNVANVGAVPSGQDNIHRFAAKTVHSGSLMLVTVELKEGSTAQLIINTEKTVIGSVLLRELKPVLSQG
UniProt P50995, whole entry, looked up: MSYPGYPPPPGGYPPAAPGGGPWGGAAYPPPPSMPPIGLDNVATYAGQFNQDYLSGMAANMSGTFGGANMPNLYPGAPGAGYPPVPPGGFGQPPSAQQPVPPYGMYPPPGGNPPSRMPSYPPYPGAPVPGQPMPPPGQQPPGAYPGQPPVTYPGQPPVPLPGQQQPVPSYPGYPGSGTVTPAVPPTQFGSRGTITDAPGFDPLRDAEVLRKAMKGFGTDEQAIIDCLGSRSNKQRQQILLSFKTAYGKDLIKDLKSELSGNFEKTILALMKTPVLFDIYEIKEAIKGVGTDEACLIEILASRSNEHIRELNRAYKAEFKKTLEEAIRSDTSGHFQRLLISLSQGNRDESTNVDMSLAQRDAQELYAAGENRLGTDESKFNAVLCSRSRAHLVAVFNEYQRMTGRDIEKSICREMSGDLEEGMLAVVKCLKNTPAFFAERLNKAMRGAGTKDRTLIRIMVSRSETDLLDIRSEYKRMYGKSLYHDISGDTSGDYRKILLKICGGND
UniProt P31749: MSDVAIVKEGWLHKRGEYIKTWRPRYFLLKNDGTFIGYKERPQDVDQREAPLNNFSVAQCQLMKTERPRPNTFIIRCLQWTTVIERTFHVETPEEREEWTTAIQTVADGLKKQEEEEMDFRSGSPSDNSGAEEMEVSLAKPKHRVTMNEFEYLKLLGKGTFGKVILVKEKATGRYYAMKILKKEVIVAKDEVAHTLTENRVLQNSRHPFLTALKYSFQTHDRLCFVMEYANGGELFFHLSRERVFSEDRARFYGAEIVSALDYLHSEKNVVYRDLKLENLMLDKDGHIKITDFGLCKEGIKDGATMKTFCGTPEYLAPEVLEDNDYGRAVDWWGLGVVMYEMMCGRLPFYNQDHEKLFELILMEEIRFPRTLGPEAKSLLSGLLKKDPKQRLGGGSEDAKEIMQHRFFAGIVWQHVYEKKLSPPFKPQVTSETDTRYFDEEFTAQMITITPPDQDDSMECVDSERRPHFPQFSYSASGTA
UniProt Q9BT22: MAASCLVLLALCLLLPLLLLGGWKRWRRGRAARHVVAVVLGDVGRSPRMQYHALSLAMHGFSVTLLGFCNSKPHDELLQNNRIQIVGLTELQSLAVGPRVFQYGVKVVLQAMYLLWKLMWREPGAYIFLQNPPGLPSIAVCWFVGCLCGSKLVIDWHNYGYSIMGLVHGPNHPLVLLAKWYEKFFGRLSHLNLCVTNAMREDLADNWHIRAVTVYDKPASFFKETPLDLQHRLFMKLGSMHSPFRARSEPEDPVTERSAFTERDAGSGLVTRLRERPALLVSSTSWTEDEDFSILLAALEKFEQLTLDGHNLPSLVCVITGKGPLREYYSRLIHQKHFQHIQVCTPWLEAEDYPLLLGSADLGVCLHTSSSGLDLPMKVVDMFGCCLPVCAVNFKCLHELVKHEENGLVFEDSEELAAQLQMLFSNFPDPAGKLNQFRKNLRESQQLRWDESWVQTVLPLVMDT
UniProt Q9UM13, whole entry, looked up: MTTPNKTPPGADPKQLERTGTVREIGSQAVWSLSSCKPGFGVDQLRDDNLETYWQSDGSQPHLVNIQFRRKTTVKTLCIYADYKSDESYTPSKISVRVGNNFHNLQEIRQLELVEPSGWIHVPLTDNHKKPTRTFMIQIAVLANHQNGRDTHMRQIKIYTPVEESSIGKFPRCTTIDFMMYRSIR
UniProt P31751: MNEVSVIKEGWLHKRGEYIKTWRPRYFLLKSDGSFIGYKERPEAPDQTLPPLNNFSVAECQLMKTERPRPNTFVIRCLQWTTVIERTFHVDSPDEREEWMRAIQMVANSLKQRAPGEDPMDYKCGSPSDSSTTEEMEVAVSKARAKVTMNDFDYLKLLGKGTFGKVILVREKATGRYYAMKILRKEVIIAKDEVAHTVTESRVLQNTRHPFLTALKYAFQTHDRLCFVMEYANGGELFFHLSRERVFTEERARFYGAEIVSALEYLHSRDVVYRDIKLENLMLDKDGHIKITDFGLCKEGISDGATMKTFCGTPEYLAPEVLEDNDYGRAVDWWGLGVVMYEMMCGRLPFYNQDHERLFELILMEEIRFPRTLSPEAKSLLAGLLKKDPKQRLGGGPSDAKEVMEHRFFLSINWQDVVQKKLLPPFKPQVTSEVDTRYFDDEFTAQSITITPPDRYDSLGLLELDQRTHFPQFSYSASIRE

Columns and labels:
Assay in all cases: log2 fold change, soluble protein after heating vs DMSO (PISA); higher = thermal stabilisation; K562 lysate, 10 uM; active = over 0.2 and 3.5 SD of the protein, either way, in both replicates (recomputed)
[1] = compound: CN1CC[C@H](c2c(O)cc(O)c3c(=O)cc(-c4ccccc4Cl)oc23)[C@H](O)C1 [alvocidib]
In short: (§1)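 Pellets of K562 cells were dounce-homogenised in PBS pH 7.4 with 1 mM MgCl2, and the crude extract was held at 1 mg/mL protein for a 30 min treatment with 10 μM compound. Aliquots were heated for 3 min over 48°C-58°C and pooled before NP-40 was added to 0.5% at 4°C. The supernatant from 21,000xg for 90 min was quantified by TMTpro 16plex LC-MS/MS with channel sums equalised. Values are reported from duplicates as log-two fold change in thermal stability relative to solvent controls.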

[2] = compound: CN1CCc2c(c3ccccc3n2Cc2ccc(C(=O)NO)cc2)C1 [Tubastatin A]
In short: as §1

[3] = compound: CNC(=O)C1=CC=CC=C1NC2=NC(=NC=C2Cl)NC3=C(C=C(C=C3)N4CCOCC4)OC
In short: as §1

[4] = compound: CNC(=O)c1ccc(Nc2ncc(C(F)(F)F)c(NCc3nccnc3N(C)S(C)(=O)=O)n2)cc1 [defactinib]
In short: as §1

[5] = compound: CNc1nc(-c2ccc3c(N)n[nH]c3c2)cc(N2C[C@@H](C(=O)NC3CCCCC3)CC[C@H]2C)n1
In short: as §1

[6] = compound: COC(=O)N[C@@H](C)CNc1nccc(-c2cn(C(C)C)nc2-c2cc(Cl)cc(NS(C)(=O)=O)c2F)n1 [encorafenib]
In short: as §1

[7] = compound: COC(=O)[C@H](CCSC)NC(=O)C1=C(C=C(C=C1)NC[C@H](CS)N)C2=CC=CC=C2
In short: as §1

[8] = compound: COc1cc(Nc2ncc3c(n2)-c2ccc(Cl)cc2C(c2c(F)cccc2OC)=NC3)ccc1C(=O)O [alisertib]
In short: as §1

[9] = compound: COc1cc2nc(-c3cc(F)ccc3O)nc(N[C@@H]3CNC[C@H]3C(C)(C)O)c2cc1OC
In short: as §1

[10] = compound: COc1cc2ncnc(Nc3ccc(F)c(Cl)c3)c2cc1OCCCN1CCOCC1 [gefitinib]
In short: as §1

Measured: log2 fold change

ANTXR2 isoform 4 (UniProt P58335)
inactive: [1] -0.043 | [2] 0.06 | [3] -0.015 | [4] -0.001 | [5] -0.004 | [6] 0.001 | [7] -0.034 | [8] -0.022 | [9] 0.011 | [10] 0.027

ANKFY1 isoform 4 (UniProt Q9P2R3)
inactive: [1] -0.009 | [2] -0.038 | [3] 0.002 | [4] 0.018 | [5] 0.004 | [6] -0.024 | [7] 0.102 | [8] -0.038 | [9] 0.002 | [10] 0.003

ANXA7 (UniProt P20073)
inactive: [1] 0.007 | [2] -0.006 | [3] 0.012 | [4] -0.037 | [5] -0.055 | [6] -0.029 | [7] 0.023 | [8] 0.013 | [9] -0.003 | [10] -0.022

ANKRD17 (UniProt O75179)
inactive: [1] -0.013 | [2] -0.042 | [3] -0.013 | [4] 0.003 | [5] -0.057 | [6] 0.038 | [7] 0.026 | [8] 0.029 | [9] -0.015 | [10] 0.012

ANKHD1 isoform 6 (UniProt Q8IWZ3)
inactive: [1] -0.109 | [2] -0.091 | [3] 0.014 | [4] 0.032 | [5] -0.017 | [6] 0.036 | [7] 0.002 | [8] 0.031 | [9] -0.005 | [10] -0.002

ANXA6 (UniProt P08133)
inactive: [1] -0.032 | [2] 0.008 | [3] -0.014 | [4] -0.027 | [5] -0.037 | [6] -0.034 | [7] 0.051 | [8] 0.005 | [9] -0.002 | [10] -0.007

AP2A1 (UniProt O95782)
inactive: [1] 0.003 | [2] 0.026 | [3] 0.054 | [4] 0.021 | [5] 0 | [6] -0.015 | [7] -0.018 | [8] 0 | [9] -0.004 | [10] 0.008

AP1G2 (UniProt O75843)
inactive: [1] 0.04 | [2] -0.099 | [3] 0.068 | [4] -0.006 | [5] 0.036 | [6] -0.03 | [7] -0.015 | [8] 0.037 | [9] 0.056 | [10] 0.03

ANKRD28 (UniProt O15084)
inactive: [1] -0.006 | [2] -0.058 | [3] -0.025 | [4] 0.007 | [5] 0.002 | [6] 0.015 | [7] 0.035 | [8] 0.016 | [9] -0.013 | [10] -0.01

ANKZF1 (UniProt Q9H8Y5)
inactive: [1] -0.059 | [2] -0.03 | [3] 0.025 | [4] -0.005 | [5] 0.023 | [6] -0.001 | [7] 0.073 | [8] -0.035 | [9] -0.046 | [10] 0.014

ANXA1 (UniProt P04083)
inactive: [1] -0.025 | [2] -0.005 | [3] -0.021 | [4] -0.007 | [5] -0.055 | [6] -0.021 | [7] 0.028 | [8] 0.001 | [9] 0.008 | [10] -0.012

7 neighbouring records from above:
ANXA7 (UniProt P20073)
inactive: [1] 0.007 | [2] -0.006 | [3] 0.012 | [4] -0.037 | [5] -0.055 | [6] -0.029 | [7] 0.023 | [8] 0.013 | [9] -0.003 | [10] -0.022

ANKRD17 (UniProt O75179)
inactive: [1] -0.013 | [2] -0.042 | [3] -0.013 | [4] 0.003 | [5] -0.057 | [6] 0.038 | [7] 0.026 | [8] 0.029 | [9] -0.015 | [10] 0.012

ANKHD1 isoform 6 (UniProt Q8IWZ3)
inactive: [1] -0.109 | [2] -0.091 | [3] 0.014 | [4] 0.032 | [5] -0.017 | [6] 0.036 | [7] 0.002 | [8] 0.031 | [9] -0.005 | [10] -0.002

ANXA6 (UniProt P08133)
inactive: [1] -0.032 | [2] 0.008 | [3] -0.014 | [4] -0.027 | [5] -0.037 | [6] -0.034 | [7] 0.051 | [8] 0.005 | [9] -0.002 | [10] -0.007

AP2A1 (UniProt O95782)
inactive: [1] 0.003 | [2] 0.026 | [3] 0.054 | [4] 0.021 | [5] 0 | [6] -0.015 | [7] -0.018 | [8] 0 | [9] -0.004 | [10] 0.008

AP1G2 (UniProt O75843)
inactive: [1] 0.04 | [2] -0.099 | [3] 0.068 | [4] -0.006 | [5] 0.036 | [6] -0.03 | [7] -0.015 | [8] 0.037 | [9] 0.056 | [10] 0.03

ANKRD28 (UniProt O15084)
inactive: [1] -0.006 | [2] -0.058 | [3] -0.025 | [4] 0.007 | [5] 0.002 | [6] 0.015 | [7] 0.035 | [8] 0.016 | [9] -0.013 | [10] -0.01

Following part:

AP1S1 (UniProt P61966)
inactive: [1] 0.025 | [2] -0.04 | [3] -0.002 | [4] 0.065 | [5] -0.053 | [6] 0.011 | [7] 0.016 | [8] -0.001 | [9] -0.038 | [10] -0.032

AP3B1 (UniProt O00203)
inactive: [1] -0.013 | [2] -0.031 | [3] 0.008 | [4] 0.019 | [5] 0.047 | [6] 0.029 | [7] 0.028 | [8] 0.011 | [9] -0.001 | [10] -0.008

AMPD2 (UniProt Q01433)
inactive: [1] -0.037 | [2] 0.051 | [3] -0.004 | [4] -0.02 | [5] -0.005 | [6] 0.002 | [7] 0.024 | [8] -0.01 | [9] 0.005 | [10] -0.008

AMD1 (UniProt P17707)
inactive: [1] -0.039 | [2] -0.084 | [3] 0.071 | [4] -0.003 | [5] 0.008 | [6] -0.08 | [7] -0.107 | [8] 0.027 | [9] 0.261 | [10] 0.041

ANXA11 (UniProt P50995)
inactive: [1] -0.025 | [2] 0.017 | [3] 0.009 | [4] -0.012 | [5] -0.019 | [6] -0.004 | [7] 0.027 | [8] 0.015 | [9] -0.015 | [10] -0.014

ANP32E (UniProt Q9BTT0)
inactive: [1] 0 | [2] 0.079 | [3] -0.007 | [4] -0.018 | [5] 0.056 | [6] -0.037 | [7] -0.008 | [8] -0.019 | [9] 0.007 | [10] -0.061

ALYREF (UniProt Q86V81)
inactive: [1] 0.065 | [2] 0.112 | [3] -0.025 | [4] -0.012 | [5] 0.059 | [6] 0.013 | [7] -0.062 | [8] 0.04 | [9] -0.026 | [10] 0.014

ANXA3 (UniProt P12429)
inactive: [1] -0.006 | [2] -0.038 | [3] -0.014 | [4] 0.011 | [5] -0.087 | [6] -0.013 | [7] 0.063 | [8] -0.011 | [9] -0.006 | [10] 0.004

ALDH1A1 (UniProt P00352)
inactive: [1] 0.06 | [2] -0.004 | [3] 0.004 | [4] -0.007 | [5] -0.037 | [6] -0.009 | [7] -0.043 | [8] 0.01 | [9] -0.001 | [10] -0.017

ALDH1B1 (UniProt P30837)
inactive: [1] 0.168 | [2] 0.01 | [4] -0.029 | [5] 0.007 | [6] -0.008 | [7] 0.127 | [8] -0.002 | [9] 0.006 | [10] -0.026
active: [3] 0.233

AKT1 (UniProt P31749)
inactive: [1] -0.002 | [2] -0.018 | [3] 0.036 | [4] 0.038 | [5] -0.05 | [6] 0.084 | [7] 0.093 | [8] 0.019 | [9] 0.003 | [10] -0.05

ALKBH5 (UniProt Q6P6C2)
inactive: [1] -0.006 | [2] 0.121 | [3] -0.023 | [4] -0.038 | [5] 0.105 | [6] -0.068 | [7] 0.073 | [8] 0.025 | [9] 0.092 | [10] -0.032

ALDH2 (UniProt P05091)
active: [3] 0.437
inactive: [1] 0.059 | [2] -0.006 | [4] -0.03 | [5] -0.051 | [6] 0.006 | [7] -0.03 | [8] 0.037 | [9] -0.016 | [10] 0.014

AP4E1 (UniProt Q9UPM8)
inactive: [1] -0.029 | [2] -0.081 | [3] -0.007 | [4] 0.077 | [5] -0.005 | [6] 0.055 | [7] -0.023 | [8] 0.011 | [9] -0.007 | [10] -0.033

ALG1 (UniProt Q9BT22)
inactive: [1] 0.042 | [2] -0.004 | [3] 0.042 | [4] -0.02 | [5] 0.009 | [6] 0.005 | [7] -0.068 | [8] -0.065 | [9] 0.064 | [10] 0.019

ANAPC10 (UniProt Q9UM13)
inactive: [1] -0.006 | [2] -0.003 | [3] 0.075 | [4] 0.008 | [5] 0.009 | [6] 0 | [7] -0.066 | [8] 0.008 | [9] -0.002 | [10] 0.012

ANAPC5 (UniProt Q9UJX4)
inactive: [1] 0.018 | [2] -0.104 | [3] 0.022 | [4] -0.012 | [5] -0.022 | [6] 0.039 | [7] -0.058 | [8] 0.001 | [9] 0.002 | [10] 0.017

ANKRD13A (UniProt Q8IZ07)
inactive: [1] 0.011 | [2] -0.047 | [3] -0.003 | [4] 0.047 | [5] 0.01 | [6] 0.025 | [7] -0.009 | [8] -0.039 | [9] -0.012 | [10] 0.001

AKT2 (UniProt P31751)
inactive: [1] 0.001 | [2] -0.061 | [3] 0.036 | [4] -0.013 | [5] -0.064 | [6] 0.028 | [7] 0.037 | [8] 0.003 | [9] -0.005 | [10] -0.013
